At least one compound was matched to its structure with a doubt left.
Tests used:
Assay type in all cases: in vivo, hamster (Golden Syrian)
[1] = system: free choice fed hamsters (diet-induced NASH hamster model of HFpEF); assay: Biochemical analysis (glucose, plasma insulin, ALT/AST, NT pro-BNP) in diet-induced NASH hamster model of HFpEF; details: week 20, after 5 weeks of treatment per os (compound 001 600 mg/kg, vardenafil 10 mg/kg)
From the text: Animals. Male hamsters (Golden Syrian), 4-week-old at receipt, were acclimated at least 5 days before the beginning of the study. Control animals were fed with a chow diet with normal tap water. For diet-induced NASH model, animals were fed with a free choice diet consisting of (a) a chow diet with normal water and (b) a high fat/cholesterol diet with 10% fructose enriched tap water. Food and water intake have been measured once a week. Dosage regimen and test groups. Animals were divided into 5 groups: [table] The study was conducted over 20 weeks. Treatments were administered from week 15 until the end of the experiment (duration 5 weeks), once a day, per os, at a rate of 10 ml/kg. Water was used as vehicle. Vardenafil was used as reference compound. Biochemical analysis. After 14 and 20 weeks of diet, blood was collected through tail vein, saphenous vein or retro orbital sinus after a 6 h fasting period to measure respectively glucose, plasma insulin and ALT/AST. After 20 weeks of diet, blood was collected and centrifuged to obtain plasma which was used to measure NT pro-BNP in plasma. Data analysis. All graphs represent means±standard error of mean (sem). Statistical analysis has been performed using GraphPad Prism 5 software. Single comparisons were made using Student's unpaired t-test or Mann Whitney in case of significant variance. […]

[2] = system: free choice fed hamsters (diet-induced NASH hamster model of HFpEF); assay: Echocardiography (left ventricular function and dimensions) in diet-induced NASH hamster model of HFpEF
From the text: Animals. Male hamsters (Golden Syrian), 4-week-old at receipt, were acclimated at least 5 days before the beginning of the study. Control animals were fed with a chow diet with normal tap water. For diet-induced NASH model, animals were fed with a free choice diet consisting of (a) a chow diet with normal water and (b) a high fat/cholesterol diet with 10% fructose enriched tap water. Food and water intake have been measured once a week. Dosage regimen and test groups. Animals were divided into 5 groups: [table] The study was conducted over 20 weeks. Treatments were administered from week 15 until the end of the experiment (duration 5 weeks), once a day, per os, at a rate of 10 ml/kg. Water was used as vehicle. Vardenafil was used as reference compound. Echocardiography. Left ventricular function and dimensions were assessed 14 and 20 weeks after the start of diet using two-dimensional echocardiograph (VF16-5 probe, Siemens, Acuson NX3 Elite). Numeric images of the heart were obtained in parasternal long and short-axis views using or not time motion for systolic function and in apical four chambers view with doppler mode for diastolic function. Heart rate, left ventricular end-diastolic and end-systolic diameters and volumes, as well as posterior and anterior wall thicknesses in diastole and systole, mitral flow velocity (E and A waves), the isovolumic relaxation time (IVRT), and annular tissue velocity of the mitral valve (e′ and a′ peaks) were measured. Left ventricular ejection fraction, fractional shortening, E/A ratio and E/E′ ratio were then calculated. Data analysis. All graphs represent means±standard error of mean (sem). Statistical analysis has been performed using GraphPad Prism 5 software. Single comparisons were made using Student's unpaired t-test or Mann Whitney in case of significant variance. Multiple comparisons have been carried out with two-way ANOVA followed by post-hoc Bonferroni test or one-way ANOVA followed by post-hoc Dunnett or Kruskall-Wallis test in case of significant variance. For all tests, p<0.05 was considered significant.

[3] = system: free choice fed hamsters (diet-induced NASH hamster model of HFpEF); assay: Body weight, food and water intake in diet-induced NASH hamster model of HFpEF; details: treatment once a day per os from week 15, 5 weeks (compound 001 600 mg/kg, vardenafil 10 mg/kg), FIG. 5
From the text: Animals. Male hamsters (Golden Syrian), 4-week-old at receipt, were acclimated at least 5 days before the beginning of the study. Control animals were fed with a chow diet with normal tap water. For diet-induced NASH model, animals were fed with a free choice diet consisting of (a) a chow diet with normal water and (b) a high fat/cholesterol diet with 10% fructose enriched tap water. Food and water intake have been measured once a week. Dosage regimen and test groups. Animals were divided into 5 groups: [table] The study was conducted over 20 weeks. Treatments were administered from week 15 until the end of the experiment (duration 5 weeks), once a day, per os, at a rate of 10 ml/kg. Water was used as vehicle. Vardenafil was used as reference compound. Data analysis. All graphs represent means±standard error of mean (sem). Statistical analysis has been performed using GraphPad Prism 5 software. Single comparisons were made using Student's unpaired t-test or Mann Whitney in case of significant variance. […] During 20 weeks of diet including 5 weeks under treatment with vehicle, compound 001, vardenafil or both, body weight, food and water intake were recorded once a week. Blood was collected at week 14 and week 20 to measure plasma insulin, glucose and ALT/AST, and NT-pro BNP level was evaluated at week 20. Echocardiographic studies were assessed at week 14 and week 20. […]

CCCc1nc(C)c2c(=O)[nH]c(-c3cc(S(=O)(=O)N4CCN(CC)CC4)ccc3OCC)nn12 [vardenafil, reference compound]
plasma insulin levels ([1]; FIG. 9C): tended to increase plasma insulin levels
HOMA-IR index ([1]; FIG. 9E): tended to increase plasma insulin levels and HOMA-IR index
cardiac parameters (overall conclusion) ([2]; diet-induced NASH hamster model, end of 5-week treatment period): as did vardenafil with a major effect
diastolic function ([2]; echocardiography after 20 weeks of diet including 5 weeks of treatment per os (compound 001 600 mg/kg, vardenafil 10 mg/kg)): improved the diastolic function to a greater extent
E/A ratio ([2]; echocardiography after 20 weeks of diet including 5 weeks of treatment per os (compound 001 600 mg/kg, vardenafil 10 mg/kg), vs free choice vehicle, FIG. 8A): significant decrease in E/A and E/E′ ratios
E′/A′ ratio ([2]; echocardiography after 20 weeks of diet including 5 weeks of treatment per os (compound 001 600 mg/kg, vardenafil 10 mg/kg), vs free choice vehicle, FIG. 8B): increase in E′/A′ ratio and IVRT
E/E′ ratio ([2]; echocardiography after 20 weeks of diet including 5 weeks of treatment per os (compound 001 600 mg/kg, vardenafil 10 mg/kg), vs free choice vehicle, FIG. 8D): significant decrease in E/A and E/E′ ratios
isovolumic relaxation time (IVRT) ([2]; echocardiography after 20 weeks of diet including 5 weeks of treatment per os (compound 001 600 mg/kg, vardenafil 10 mg/kg), vs free choice vehicle, FIG. 8E): increase in E′/A′ ratio and IVRT
body weight / body weight gain [3]: no effect on the body weight loss

From US20240382511A1, “NICOTINAMIDE MONONUCLEOTIDE DERIVATIVES AND USE THEREOF FOR THE TREATMENT OF HEART FAILURE WITH PRESERVED EJECTION FRACTION” (NUVAMID SA, priority 2021, published 2024)
